In the supplement of paper PMC12823440, “Inhibitors supercharge kinase turnover through native proteolytic circuits” (Nature, 2025):
Counter-ions that a name gives are not always drawn. This is one part of the list. The calls rarely recur for the same compound in another form.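 In K562 cells expressing nanoluciferase-fused kinases, luminescence was recorded at 4 h intervals between 2 and 18 h, normalized as percent of control with DMSO at 100% and a positive control at 0%. A significant (2 sigma) signal drop marks a time point as decreased. The authors' rule for a hit is not shown and takes in more than the number of time points.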

The chains behind the UniProt entries cited, without tags or fusion partners. Where a name states a change or a piece, a line headed by the entry shows the natural chain unless it says otherwise.
UniProt Q9UQM7, whole entry: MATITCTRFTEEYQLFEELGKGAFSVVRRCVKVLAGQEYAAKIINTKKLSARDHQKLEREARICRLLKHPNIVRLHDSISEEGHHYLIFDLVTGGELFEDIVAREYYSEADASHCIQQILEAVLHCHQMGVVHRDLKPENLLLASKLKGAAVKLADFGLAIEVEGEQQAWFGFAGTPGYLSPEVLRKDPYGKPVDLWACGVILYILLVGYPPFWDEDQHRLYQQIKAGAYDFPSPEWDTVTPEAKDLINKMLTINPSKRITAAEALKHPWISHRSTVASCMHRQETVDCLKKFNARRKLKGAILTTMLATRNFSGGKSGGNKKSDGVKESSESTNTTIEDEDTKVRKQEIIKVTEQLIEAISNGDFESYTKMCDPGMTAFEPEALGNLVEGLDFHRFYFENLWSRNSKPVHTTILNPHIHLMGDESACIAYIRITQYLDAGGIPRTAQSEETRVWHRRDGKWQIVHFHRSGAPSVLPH
UniProt Q13555: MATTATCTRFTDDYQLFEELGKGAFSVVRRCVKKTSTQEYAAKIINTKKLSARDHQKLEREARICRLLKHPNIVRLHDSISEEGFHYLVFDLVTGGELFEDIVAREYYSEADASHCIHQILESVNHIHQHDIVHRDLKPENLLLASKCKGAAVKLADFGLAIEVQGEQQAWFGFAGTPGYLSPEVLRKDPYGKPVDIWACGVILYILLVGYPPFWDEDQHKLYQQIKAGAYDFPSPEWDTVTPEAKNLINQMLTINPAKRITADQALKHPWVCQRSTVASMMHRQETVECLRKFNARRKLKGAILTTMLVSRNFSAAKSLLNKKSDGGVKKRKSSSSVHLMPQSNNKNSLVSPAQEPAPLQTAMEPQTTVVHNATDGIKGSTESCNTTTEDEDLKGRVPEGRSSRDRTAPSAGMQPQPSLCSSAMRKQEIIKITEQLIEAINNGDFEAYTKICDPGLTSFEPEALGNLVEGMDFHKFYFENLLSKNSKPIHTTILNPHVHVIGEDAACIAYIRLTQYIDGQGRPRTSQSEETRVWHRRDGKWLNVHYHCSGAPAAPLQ
UniProt Q15131: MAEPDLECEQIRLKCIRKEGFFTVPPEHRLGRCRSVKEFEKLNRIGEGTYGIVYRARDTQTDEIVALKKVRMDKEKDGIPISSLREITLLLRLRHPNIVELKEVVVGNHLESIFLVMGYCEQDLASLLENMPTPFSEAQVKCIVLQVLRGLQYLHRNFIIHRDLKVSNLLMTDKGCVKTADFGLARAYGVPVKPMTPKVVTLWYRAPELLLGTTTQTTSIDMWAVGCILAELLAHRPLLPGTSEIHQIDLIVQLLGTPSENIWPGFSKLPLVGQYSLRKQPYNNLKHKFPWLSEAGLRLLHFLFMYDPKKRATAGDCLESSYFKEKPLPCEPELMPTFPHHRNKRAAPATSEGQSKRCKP
UniProt Q00526: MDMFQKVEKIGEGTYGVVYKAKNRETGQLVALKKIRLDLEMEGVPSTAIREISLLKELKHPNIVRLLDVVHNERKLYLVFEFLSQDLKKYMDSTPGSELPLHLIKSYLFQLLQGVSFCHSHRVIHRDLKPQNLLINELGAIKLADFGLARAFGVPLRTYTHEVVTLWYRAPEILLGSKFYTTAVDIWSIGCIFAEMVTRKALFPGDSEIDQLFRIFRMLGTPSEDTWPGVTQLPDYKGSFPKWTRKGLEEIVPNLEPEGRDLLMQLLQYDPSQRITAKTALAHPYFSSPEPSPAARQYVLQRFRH
UniProt P11802: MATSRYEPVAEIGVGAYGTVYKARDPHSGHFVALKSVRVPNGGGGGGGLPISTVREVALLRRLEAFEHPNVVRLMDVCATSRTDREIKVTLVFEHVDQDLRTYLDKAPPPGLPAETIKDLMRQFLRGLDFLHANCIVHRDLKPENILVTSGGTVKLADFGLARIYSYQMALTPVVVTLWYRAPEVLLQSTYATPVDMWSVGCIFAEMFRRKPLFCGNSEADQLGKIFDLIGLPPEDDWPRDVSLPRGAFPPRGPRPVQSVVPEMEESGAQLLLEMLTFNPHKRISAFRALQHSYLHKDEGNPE
UniProt Q00535, whole entry, looked up: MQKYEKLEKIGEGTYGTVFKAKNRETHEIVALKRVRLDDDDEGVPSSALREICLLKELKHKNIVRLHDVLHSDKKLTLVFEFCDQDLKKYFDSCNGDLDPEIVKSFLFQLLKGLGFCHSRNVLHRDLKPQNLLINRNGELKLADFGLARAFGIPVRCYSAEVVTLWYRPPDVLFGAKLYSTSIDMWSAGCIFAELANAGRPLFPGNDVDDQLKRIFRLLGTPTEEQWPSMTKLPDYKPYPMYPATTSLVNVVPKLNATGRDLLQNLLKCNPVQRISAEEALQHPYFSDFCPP
UniProt P50750, whole entry: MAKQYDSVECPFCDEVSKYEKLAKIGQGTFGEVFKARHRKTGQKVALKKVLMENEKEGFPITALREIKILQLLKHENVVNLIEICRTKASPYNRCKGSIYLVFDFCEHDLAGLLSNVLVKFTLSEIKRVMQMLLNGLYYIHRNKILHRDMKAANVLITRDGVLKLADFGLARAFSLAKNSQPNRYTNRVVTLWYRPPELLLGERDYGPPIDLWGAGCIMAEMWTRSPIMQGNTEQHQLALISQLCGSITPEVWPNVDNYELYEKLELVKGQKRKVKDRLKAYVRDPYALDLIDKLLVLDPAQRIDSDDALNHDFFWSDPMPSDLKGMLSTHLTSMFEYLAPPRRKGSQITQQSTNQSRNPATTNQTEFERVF
UniProt P07333, whole entry: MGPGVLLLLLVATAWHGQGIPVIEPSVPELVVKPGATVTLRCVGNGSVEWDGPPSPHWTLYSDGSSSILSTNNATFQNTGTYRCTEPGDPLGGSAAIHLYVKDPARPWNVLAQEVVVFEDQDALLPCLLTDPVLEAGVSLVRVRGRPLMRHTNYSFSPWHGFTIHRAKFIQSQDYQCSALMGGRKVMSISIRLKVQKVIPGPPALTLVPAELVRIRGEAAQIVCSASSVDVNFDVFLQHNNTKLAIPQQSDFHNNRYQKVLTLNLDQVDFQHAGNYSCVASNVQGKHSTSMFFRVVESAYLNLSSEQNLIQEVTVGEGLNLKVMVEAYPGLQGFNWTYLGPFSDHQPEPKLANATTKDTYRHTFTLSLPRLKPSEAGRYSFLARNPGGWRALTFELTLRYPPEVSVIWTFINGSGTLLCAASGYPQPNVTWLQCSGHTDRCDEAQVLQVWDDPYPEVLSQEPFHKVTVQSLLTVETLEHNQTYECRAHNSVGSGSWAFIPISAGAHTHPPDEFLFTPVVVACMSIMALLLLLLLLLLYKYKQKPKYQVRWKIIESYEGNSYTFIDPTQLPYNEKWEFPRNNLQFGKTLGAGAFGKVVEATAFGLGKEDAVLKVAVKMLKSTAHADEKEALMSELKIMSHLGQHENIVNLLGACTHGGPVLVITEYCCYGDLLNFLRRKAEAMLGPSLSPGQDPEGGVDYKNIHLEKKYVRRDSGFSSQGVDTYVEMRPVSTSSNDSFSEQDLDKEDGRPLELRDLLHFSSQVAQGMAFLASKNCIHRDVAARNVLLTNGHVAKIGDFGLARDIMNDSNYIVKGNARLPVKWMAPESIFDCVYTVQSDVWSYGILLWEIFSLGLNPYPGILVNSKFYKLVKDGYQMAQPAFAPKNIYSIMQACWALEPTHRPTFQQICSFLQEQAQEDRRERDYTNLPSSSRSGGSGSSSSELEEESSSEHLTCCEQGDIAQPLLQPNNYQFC
UniProt P41240: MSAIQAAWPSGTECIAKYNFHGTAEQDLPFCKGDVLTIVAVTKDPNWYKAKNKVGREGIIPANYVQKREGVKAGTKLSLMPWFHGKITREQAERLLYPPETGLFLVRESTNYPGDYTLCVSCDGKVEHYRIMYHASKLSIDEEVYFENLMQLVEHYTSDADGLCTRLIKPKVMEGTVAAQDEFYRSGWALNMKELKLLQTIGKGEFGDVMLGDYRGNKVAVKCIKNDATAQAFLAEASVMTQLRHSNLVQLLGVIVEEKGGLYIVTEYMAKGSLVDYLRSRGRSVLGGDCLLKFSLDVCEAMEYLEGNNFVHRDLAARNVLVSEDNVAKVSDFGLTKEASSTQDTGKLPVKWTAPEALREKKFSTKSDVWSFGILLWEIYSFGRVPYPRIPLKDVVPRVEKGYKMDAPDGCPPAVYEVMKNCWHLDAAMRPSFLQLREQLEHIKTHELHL
UniProt P48729: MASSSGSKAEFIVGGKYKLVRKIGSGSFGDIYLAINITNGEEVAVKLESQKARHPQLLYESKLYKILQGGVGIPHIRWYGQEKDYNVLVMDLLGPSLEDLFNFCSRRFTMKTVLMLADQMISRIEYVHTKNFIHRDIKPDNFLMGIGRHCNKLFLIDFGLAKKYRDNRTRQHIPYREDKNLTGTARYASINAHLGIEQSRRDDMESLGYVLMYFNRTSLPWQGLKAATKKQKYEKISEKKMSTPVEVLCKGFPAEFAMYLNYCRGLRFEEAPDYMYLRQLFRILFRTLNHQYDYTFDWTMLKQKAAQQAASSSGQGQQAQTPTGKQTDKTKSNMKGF
UniProt P48730: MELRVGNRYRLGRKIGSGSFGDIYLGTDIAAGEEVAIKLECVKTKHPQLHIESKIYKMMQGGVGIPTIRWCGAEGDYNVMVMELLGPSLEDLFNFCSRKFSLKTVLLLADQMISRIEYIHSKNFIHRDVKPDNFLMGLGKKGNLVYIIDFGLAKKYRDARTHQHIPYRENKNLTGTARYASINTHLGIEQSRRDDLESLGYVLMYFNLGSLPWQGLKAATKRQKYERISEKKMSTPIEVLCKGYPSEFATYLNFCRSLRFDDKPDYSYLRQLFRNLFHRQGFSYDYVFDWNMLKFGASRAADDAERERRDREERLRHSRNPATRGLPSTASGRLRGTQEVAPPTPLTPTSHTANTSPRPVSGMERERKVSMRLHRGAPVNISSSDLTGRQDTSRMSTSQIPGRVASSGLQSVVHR
UniProt Q08345: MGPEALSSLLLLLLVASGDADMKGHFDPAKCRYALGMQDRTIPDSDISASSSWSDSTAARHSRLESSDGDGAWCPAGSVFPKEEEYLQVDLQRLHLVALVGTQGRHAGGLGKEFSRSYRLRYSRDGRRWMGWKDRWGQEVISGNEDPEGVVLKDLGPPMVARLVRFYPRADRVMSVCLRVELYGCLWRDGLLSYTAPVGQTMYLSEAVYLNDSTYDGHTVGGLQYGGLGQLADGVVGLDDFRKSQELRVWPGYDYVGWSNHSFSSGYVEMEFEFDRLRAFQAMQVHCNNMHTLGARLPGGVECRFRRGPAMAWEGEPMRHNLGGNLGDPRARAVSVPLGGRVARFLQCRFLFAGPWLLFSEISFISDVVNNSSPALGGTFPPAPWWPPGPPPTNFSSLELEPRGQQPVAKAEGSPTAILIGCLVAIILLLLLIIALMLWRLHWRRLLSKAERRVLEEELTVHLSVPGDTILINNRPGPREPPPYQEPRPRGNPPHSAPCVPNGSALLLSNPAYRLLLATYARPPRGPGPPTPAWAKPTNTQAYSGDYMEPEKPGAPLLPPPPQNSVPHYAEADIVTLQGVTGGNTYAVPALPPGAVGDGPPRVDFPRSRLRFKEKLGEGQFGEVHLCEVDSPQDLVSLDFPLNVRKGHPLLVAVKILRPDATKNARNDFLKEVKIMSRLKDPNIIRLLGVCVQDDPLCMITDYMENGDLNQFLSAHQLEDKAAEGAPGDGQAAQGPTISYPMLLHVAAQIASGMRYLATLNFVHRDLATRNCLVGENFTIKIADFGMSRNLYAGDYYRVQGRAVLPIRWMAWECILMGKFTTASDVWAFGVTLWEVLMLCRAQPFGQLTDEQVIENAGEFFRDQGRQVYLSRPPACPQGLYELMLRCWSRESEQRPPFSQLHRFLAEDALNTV
UniProt Q9Y463, whole entry, looked up: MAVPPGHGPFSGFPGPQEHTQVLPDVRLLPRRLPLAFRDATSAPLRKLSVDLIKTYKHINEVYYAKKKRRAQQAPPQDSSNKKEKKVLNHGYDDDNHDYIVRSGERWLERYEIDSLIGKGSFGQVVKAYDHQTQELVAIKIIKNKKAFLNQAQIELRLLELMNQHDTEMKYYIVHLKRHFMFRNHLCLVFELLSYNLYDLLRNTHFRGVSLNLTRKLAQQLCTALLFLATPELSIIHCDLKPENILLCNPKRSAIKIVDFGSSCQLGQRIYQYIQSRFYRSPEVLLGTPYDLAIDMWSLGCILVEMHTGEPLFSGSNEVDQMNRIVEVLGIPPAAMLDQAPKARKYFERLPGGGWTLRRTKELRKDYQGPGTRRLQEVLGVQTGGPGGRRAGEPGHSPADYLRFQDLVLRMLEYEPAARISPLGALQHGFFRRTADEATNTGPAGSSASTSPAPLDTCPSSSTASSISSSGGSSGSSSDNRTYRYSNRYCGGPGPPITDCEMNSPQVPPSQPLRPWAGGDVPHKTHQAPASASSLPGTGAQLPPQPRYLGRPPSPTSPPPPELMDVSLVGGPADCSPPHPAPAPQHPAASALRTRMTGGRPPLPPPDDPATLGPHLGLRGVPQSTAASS

Tests used:
Experiment in all cases: kinase-Nluc reporter destabilization hit call (1 = scored as downregulated) (binary); higher = compound decreases kinase abundance
Details in all cases: K562; 2-18 h
[1] = test system: BRAF_V600E
[2] = biological target: BTK (UniProt Q06187)
[3] = biological target: CAMK2A (UniProt Q9UQM7)
[4] = biological target: CAMK2G (UniProt Q13555)
[5] = biological target: CDK10 (UniProt Q15131)
[6] = biological target: CDK2 (UniProt P24941)
[7] = biological target: CDK3 (UniProt Q00526)
[8] = biological target: CDK4 (UniProt P11802)
[9] = biological target: CDK5 (UniProt Q00535)
[10] = biological target: CDK6 (UniProt Q00534)
[11] = biological target: CDK7 (UniProt P50613)
[12] = biological target: CDK9 (UniProt P50750)
[13] = biological target: CHEK2 (UniProt O96017)
[14] = biological target: CSF1R (UniProt P07333)
[15] = biological target: CSK (UniProt P41240)
[16] = biological target: CSNK1A1 (UniProt P48729)
[17] = biological target: CSNK1D (UniProt P48730)
[18] = biological target: DDR1 (UniProt Q08345)
[19] = biological target: DYRK1B (UniProt Q9Y463)
[20] = biological target: DYRK2 (UniProt Q92630)

Measured: kinase-Nluc reporter destabilization hit call

O=C1NC(=O)C(c2cn(-c3ccccc3)nc2-c2ccc(F)cc2)N1 (stereo not given) (10 µM)
inactive: [1] 0 | [2] 0 | [3] 0 | [4] 0 | [5] 0 | [6] 0 | [7] 0 | [8] 0 | [9] 0 | [10] 0 | [11] 0 | [12] 0 | [13] 0 | [14] 0 | [15] 0 | [16] 0 | [17] 0 | [18] 0 | [19] 0 | [20] 0

O=c1cc(-c2ccc(O)c(O)c2O)oc2ccccc12 (10 µM)
inactive: [1] 0 | [2] 0 | [3] 0 | [4] 0 | [5] 0 | [6] 0 | [7] 0 | [8] 0 | [9] 0 | [10] 0 | [11] 0 | [12] 0 | [13] 0 | [14] 0 | [15] 0 | [16] 0 | [17] 0 | [18] 0 | [19] 0 | [20] 0

CC[C@@H](N)CNc1ccnc(-c2cc(-c3cnn(C)c3)ccc2O)n1 (2.5 µM)
inactive: [1] 0 | [2] 0 | [3] 0 | [4] 0 | [5] 0 | [6] 0 | [7] 0 | [8] 0 | [9] 0 | [10] 0 | [11] 0 | [12] 0 | [13] 0 | [14] 0 | [15] 0 | [16] 0 | [17] 0 | [18] 0 | [19] 0 | [20] 0

Nc1[nH]c(=O)nc2c1ncn2[C@@H]1O[C@H](CO)[C@@H](O)[C@H]1O [Crotonoside] (10 µM)
inactive: [1] 0 | [2] 0 | [3] 0 | [4] 0 | [5] 0 | [6] 0 | [7] 0 | [8] 0 | [9] 0 | [10] 0 | [11] 0 | [12] 0 | [13] 0 | [14] 0 | [15] 0 | [16] 0 | [17] 0 | [18] 0 | [19] 0 | [20] 0

Cc1ccc(-c2ccc3c(ccc4sc5c(c43)NC[C@@H](C)NC5=O)n2)cn1 (10 µM)
inactive: [1] 0 | [2] 0 | [3] 0 | [4] 0 | [5] 0 | [6] 0 | [7] 0 | [8] 0 | [9] 0 | [10] 0 | [11] 0 | [12] 0 | [13] 0 | [14] 0 | [15] 0 | [16] 0 | [17] 0 | [18] 0 | [19] 0 | [20] 0

CCCNC(=O)c1cn2ncnc(Nc3cc(C(=O)NC4CC4)ccc3C)c2c1C (10 µM)
inactive: [1] 0 | [2] 0 | [3] 0 | [4] 0 | [5] 0 | [6] 0 | [7] 0 | [8] 0 | [9] 0 | [10] 0 | [11] 0 | [12] 0 | [13] 0 | [14] 0 | [15] 0 | [16] 0 | [17] 0 | [18] 0 | [19] 0 | [20] 0

Random excerpt: 2 compounds from above, in no set order.
O=c1cc(-c2ccc(O)c(O)c2O)oc2ccccc12 (10 µM)
inactive: [1] 0 | [2] 0 | [3] 0 | [4] 0 | [5] 0 | [6] 0 | [7] 0 | [8] 0 | [9] 0 | [10] 0 | [11] 0 | [12] 0 | [13] 0 | [14] 0 | [15] 0 | [16] 0 | [17] 0 | [18] 0 | [19] 0 | [20] 0

CCCNC(=O)c1cn2ncnc(Nc3cc(C(=O)NC4CC4)ccc3C)c2c1C (10 µM)
inactive: [1] 0 | [2] 0 | [3] 0 | [4] 0 | [5] 0 | [6] 0 | [7] 0 | [8] 0 | [9] 0 | [10] 0 | [11] 0 | [12] 0 | [13] 0 | [14] 0 | [15] 0 | [16] 0 | [17] 0 | [18] 0 | [19] 0 | [20] 0

The list goes on.

CSc1ccc(CN2CCCC(Nc3ccc4[nH]ncc4c3)C2)cc1 (stereo not given) [Rho-Kinase-IN-1] (10 µM)
inactive: [1] 0 | [2] 0 | [3] 0 | [4] 0 | [5] 0 | [6] 0 | [7] 0 | [8] 0 | [9] 0 | [10] 0 | [11] 0 | [12] 0 | [13] 0 | [14] 0 | [15] 0 | [16] 0 | [17] 0 | [18] 0 | [19] 0 | [20] 0

Cc1cc(Nc2nc(N[C@@H](C)c3ncc(F)cn3)ncc2Cl)[nH]n1 (10 µM)
inactive: [1] 0 | [2] 0 | [3] 0 | [4] 0 | [5] 0 | [6] 0 | [7] 0 | [8] 0 | [9] 0 | [10] 0 | [11] 0 | [12] 0 | [13] 0 | [14] 0 | [15] 0 | [16] 0 | [17] 0 | [18] 0 | [19] 0 | [20] 0

Cc1cnc(Nc2ccc(N3CCN(C)CC3)cc2)nc1Nc1cccc(S(=O)(=O)NC(C)(C)C)c1 (2.5 µM)
inactive: [1] 0 | [2] 0 | [3] 0 | [4] 0 | [5] 0 | [6] 0 | [7] 0 | [8] 0 | [9] 0 | [10] 0 | [11] 0 | [12] 0 | [13] 0 | [14] 0 | [15] 0 | [16] 0 | [17] 0 | [18] 0 | [19] 0 | [20] 0

CC[C@H](C)[C@H](NC(=O)[C@H](CCC(=O)O)NC(=O)[C@H](CCCN=C(N)N)NC(=O)[C@H](CCCN=C(N)N)NC(=O)[C@@H](N)CCCCN)C(=O)N[C@@H](CC(C)C)C(=O)N[C@@H](CO)C(=O)N[C@@H](CCCN=C(N)N)C(=O)N[C@@H](CCCN=C(N)N)C(=O)N1CCC[C@H]1C(=O)N[C@@H](CO)C(=O)N[C@@H](Cc1ccc(O)cc1)C(=O)N[C@@H](CCCN=C(N)N)C(=O)O [CREBtide] (10 µM)
inactive: [1] 0 | [2] 0 | [3] 0 | [4] 0 | [5] 0 | [6] 0 | [7] 0 | [8] 0 | [9] 0 | [10] 0 | [11] 0 | [12] 0 | [13] 0 | [14] 0 | [15] 0 | [16] 0 | [17] 0 | [18] 0 | [19] 0 | [20] 0

N#C/C(=C(/N)Sc1ccc(N)cc1)c1ccccc1C(F)(F)F (10 µM)
inactive: [1] 0 | [2] 0 | [3] 0 | [4] 0 | [5] 0 | [6] 0 | [7] 0 | [8] 0 | [9] 0 | [10] 0 | [11] 0 | [12] 0 | [13] 0 | [14] 0 | [15] 0 | [16] 0 | [17] 0 | [18] 0 | [19] 0 | [20] 0

Oc1ccccc1C(=S)N1CCCC1 (10 µM)
inactive: [1] 0 | [2] 0 | [3] 0 | [4] 0 | [5] 0 | [6] 0 | [7] 0 | [8] 0 | [9] 0 | [10] 0 | [11] 0 | [12] 0 | [13] 0 | [14] 0 | [15] 0 | [16] 0 | [17] 0 | [18] 0 | [19] 0 | [20] 0

Fc1c(Br)cccc1Nc1ncnc2cc3c(cc12)OCCO3 (2.5 µM)
inactive: [1] 0 | [2] 0 | [3] 0 | [4] 0 | [5] 0 | [6] 0 | [7] 0 | [8] 0 | [9] 0 | [10] 0 | [11] 0 | [12] 0 | [13] 0 | [14] 0 | [15] 0 | [16] 0 | [17] 0 | [18] 0 | [19] 0 | [20] 0

OCCN(CCO)c1ccc(C(c2ccc(Cl)cc2)c2ccc(N(CCO)CCO)cc2)cc1 (10 µM)
active: [12] 1
inactive: [1] 0 | [2] 0 | [3] 0 | [4] 0 | [5] 0 | [6] 0 | [7] 0 | [8] 0 | [9] 0 | [10] 0 | [11] 0 | [13] 0 | [14] 0 | [15] 0 | [16] 0 | [17] 0 | [18] 0 | [19] 0 | [20] 0

CCN(C)C(=O)c1ccc2c(C(=Nc3ccc(CN4CCCCC4)cc3)c3ccccc3)c(O)[nH]c2c1 (2.5 µM)
inactive: [1] 0 | [2] 0 | [3] 0 | [4] 0 | [5] 0 | [6] 0 | [7] 0 | [8] 0 | [9] 0 | [10] 0 | [11] 0 | [12] 0 | [13] 0 | [14] 0 | [15] 0 | [16] 0 | [17] 0 | [18] 0 | [19] 0 | [20] 0

Cc1cc(C(C)Nc2ccccc2)c2nc(N3CCOCC3)cc(=O)n2c1 (stereo not given) (10 µM)
inactive: [1] 0 | [2] 0 | [3] 0 | [4] 0 | [5] 0 | [6] 0 | [7] 0 | [8] 0 | [9] 0 | [10] 0 | [11] 0 | [12] 0 | [13] 0 | [14] 0 | [15] 0 | [16] 0 | [17] 0 | [18] 0 | [19] 0 | [20] 0

CCN1C(=O)CNc2ncc(-c3ccc(-c4nc[nH]n4)nc3C)nc21 [CC-115 (hydrochloride)] (2.5 µM)
active: [11] 1
inactive: [1] 0 | [2] 0 | [3] 0 | [4] 0 | [5] 0 | [6] 0 | [7] 0 | [8] 0 | [9] 0 | [10] 0 | [12] 0 | [13] 0 | [14] 0 | [15] 0 | [16] 0 | [17] 0 | [18] 0 | [19] 0 | [20] 0

CC(C)(C)Cn1c(N)nc2ccc(-c3[nH]c(C(C)(C)C)nc3-c3ccc(F)cc3)nc21 [Ralimetinib dimesylate] (2.5 µM)
inactive: [1] 0 | [2] 0 | [3] 0 | [4] 0 | [5] 0 | [6] 0 | [7] 0 | [8] 0 | [9] 0 | [10] 0 | [11] 0 | [12] 0 | [13] 0 | [14] 0 | [15] 0 | [16] 0 | [17] 0 | [18] 0 | [19] 0 | [20] 0
